Measured values taken from the supplement of paper PMC10849652.
The list shows a part of the results.

Protein sequences, listed by entry. Tags and fused reporters are not part of them. Lines headed by an entry give the natural chain unless they say otherwise; changes in a name come on top.
UniProt P08697: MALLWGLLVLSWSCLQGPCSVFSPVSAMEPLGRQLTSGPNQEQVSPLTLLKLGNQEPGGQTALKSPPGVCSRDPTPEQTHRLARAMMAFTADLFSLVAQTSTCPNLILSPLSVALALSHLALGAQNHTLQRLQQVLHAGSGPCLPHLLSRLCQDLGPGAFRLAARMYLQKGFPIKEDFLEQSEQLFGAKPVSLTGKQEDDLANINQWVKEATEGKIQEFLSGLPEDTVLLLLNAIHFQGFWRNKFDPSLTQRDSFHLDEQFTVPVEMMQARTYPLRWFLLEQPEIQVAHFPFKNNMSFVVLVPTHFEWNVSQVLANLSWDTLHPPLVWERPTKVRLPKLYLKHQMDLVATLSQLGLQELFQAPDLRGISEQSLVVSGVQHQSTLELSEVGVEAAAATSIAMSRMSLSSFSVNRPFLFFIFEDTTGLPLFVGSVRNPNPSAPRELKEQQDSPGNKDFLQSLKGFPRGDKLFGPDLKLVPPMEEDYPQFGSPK
UniProt Q01105, whole entry, looked up: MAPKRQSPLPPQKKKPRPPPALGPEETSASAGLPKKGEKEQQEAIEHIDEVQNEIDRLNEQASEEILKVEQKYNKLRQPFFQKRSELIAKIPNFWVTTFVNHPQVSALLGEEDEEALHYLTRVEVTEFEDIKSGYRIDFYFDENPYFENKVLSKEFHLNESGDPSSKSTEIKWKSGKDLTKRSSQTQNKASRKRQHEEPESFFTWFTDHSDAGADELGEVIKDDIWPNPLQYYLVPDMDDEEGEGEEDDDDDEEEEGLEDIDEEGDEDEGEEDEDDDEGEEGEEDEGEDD
UniProt Q96ES7: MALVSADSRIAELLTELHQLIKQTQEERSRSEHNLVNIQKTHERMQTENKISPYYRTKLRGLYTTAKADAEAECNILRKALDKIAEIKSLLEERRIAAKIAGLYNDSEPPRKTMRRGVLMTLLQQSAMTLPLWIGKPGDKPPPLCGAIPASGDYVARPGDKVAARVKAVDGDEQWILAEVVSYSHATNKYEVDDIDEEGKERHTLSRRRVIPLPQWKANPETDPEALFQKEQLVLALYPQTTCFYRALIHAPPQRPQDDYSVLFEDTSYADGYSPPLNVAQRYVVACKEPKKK
UniProt Q9H173: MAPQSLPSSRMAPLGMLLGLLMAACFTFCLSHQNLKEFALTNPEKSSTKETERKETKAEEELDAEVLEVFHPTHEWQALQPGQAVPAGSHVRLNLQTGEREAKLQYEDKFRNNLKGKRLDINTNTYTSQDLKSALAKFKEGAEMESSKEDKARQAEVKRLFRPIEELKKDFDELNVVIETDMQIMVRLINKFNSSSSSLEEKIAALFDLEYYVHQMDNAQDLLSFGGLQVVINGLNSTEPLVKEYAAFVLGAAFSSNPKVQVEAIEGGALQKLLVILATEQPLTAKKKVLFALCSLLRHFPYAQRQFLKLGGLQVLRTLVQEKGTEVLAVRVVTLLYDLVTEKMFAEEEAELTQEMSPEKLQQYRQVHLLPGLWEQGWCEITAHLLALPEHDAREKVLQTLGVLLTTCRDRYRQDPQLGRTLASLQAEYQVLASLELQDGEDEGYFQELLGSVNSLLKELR
UniProt Q96FS4: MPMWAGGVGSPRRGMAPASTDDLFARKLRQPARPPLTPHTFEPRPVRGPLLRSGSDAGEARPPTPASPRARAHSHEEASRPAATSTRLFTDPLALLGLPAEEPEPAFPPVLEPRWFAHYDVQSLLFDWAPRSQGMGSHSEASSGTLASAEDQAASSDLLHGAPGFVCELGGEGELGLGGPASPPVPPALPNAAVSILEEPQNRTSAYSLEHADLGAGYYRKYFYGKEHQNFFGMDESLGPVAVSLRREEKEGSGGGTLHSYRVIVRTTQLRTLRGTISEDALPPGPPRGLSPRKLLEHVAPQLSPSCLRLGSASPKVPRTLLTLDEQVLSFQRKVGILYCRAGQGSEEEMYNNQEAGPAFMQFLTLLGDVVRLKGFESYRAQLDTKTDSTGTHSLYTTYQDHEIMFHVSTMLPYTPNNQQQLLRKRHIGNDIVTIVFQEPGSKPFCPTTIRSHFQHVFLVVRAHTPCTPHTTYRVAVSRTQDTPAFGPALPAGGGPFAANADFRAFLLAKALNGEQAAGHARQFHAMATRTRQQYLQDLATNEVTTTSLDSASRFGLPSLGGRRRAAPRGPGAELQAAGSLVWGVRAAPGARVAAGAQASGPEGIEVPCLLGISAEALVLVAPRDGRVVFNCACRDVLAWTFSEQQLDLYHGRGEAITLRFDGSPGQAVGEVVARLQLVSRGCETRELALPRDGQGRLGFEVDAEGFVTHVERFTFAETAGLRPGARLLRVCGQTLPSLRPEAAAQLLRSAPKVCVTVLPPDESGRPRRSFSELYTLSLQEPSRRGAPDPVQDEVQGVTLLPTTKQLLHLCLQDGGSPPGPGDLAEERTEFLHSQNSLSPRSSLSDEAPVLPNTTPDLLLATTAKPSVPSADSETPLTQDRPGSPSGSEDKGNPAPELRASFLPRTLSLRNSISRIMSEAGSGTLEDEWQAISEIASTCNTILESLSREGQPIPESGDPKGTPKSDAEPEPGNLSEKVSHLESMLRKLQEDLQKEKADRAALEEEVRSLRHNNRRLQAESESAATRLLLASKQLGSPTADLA
UniProt Q9NXA8: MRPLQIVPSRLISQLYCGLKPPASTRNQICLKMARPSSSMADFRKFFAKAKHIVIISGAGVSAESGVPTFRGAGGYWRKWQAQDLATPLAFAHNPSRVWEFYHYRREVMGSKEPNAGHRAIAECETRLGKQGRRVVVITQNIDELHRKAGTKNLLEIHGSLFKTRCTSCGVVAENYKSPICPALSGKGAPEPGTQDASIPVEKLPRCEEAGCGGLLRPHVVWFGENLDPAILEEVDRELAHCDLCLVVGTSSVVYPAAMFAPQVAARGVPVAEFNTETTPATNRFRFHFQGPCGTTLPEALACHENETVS
UniProt Q8IZQ5, whole entry, looked up: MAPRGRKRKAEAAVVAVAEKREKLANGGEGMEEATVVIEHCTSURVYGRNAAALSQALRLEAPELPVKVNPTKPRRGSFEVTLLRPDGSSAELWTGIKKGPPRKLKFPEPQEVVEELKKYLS
UniProt Q9BQE4, whole entry, looked up: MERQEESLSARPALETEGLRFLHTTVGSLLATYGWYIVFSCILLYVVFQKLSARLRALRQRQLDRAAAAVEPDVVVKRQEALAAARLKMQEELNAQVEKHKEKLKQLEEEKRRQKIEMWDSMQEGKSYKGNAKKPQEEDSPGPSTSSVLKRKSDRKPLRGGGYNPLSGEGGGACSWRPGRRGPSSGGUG
UniProt Q15427: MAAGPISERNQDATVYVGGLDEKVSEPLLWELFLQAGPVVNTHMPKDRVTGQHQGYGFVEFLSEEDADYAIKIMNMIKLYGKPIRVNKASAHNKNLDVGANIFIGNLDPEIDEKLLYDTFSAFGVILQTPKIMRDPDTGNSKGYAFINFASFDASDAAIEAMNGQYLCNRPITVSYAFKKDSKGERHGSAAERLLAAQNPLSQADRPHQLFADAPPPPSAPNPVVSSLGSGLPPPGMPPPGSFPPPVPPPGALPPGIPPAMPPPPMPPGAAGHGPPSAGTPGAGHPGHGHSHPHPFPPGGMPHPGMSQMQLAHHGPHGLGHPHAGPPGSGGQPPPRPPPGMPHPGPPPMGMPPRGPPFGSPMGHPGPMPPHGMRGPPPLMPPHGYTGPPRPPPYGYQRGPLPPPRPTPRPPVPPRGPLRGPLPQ
UniProt Q9C0C4, whole entry, looked up: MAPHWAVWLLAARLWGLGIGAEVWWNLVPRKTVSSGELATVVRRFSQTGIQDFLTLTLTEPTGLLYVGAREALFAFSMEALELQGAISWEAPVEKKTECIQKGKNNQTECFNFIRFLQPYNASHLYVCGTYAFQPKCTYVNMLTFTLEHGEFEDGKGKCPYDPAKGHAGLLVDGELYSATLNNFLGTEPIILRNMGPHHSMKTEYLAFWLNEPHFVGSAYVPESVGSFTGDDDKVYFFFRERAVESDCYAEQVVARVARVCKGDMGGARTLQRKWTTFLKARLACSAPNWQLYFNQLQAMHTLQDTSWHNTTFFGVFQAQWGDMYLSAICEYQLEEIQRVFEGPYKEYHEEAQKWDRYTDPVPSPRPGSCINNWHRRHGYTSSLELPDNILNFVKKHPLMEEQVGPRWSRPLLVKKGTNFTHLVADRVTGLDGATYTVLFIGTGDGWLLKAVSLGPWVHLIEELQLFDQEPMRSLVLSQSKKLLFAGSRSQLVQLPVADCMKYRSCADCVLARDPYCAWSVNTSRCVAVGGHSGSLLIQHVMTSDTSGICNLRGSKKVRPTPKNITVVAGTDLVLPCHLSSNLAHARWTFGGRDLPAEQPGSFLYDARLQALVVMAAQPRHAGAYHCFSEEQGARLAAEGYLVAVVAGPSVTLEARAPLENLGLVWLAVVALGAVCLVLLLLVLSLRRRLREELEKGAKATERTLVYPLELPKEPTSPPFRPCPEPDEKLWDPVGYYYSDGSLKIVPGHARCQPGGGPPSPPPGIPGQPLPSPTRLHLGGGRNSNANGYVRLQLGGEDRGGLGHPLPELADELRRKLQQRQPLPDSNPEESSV
UniProt Q8NBJ9: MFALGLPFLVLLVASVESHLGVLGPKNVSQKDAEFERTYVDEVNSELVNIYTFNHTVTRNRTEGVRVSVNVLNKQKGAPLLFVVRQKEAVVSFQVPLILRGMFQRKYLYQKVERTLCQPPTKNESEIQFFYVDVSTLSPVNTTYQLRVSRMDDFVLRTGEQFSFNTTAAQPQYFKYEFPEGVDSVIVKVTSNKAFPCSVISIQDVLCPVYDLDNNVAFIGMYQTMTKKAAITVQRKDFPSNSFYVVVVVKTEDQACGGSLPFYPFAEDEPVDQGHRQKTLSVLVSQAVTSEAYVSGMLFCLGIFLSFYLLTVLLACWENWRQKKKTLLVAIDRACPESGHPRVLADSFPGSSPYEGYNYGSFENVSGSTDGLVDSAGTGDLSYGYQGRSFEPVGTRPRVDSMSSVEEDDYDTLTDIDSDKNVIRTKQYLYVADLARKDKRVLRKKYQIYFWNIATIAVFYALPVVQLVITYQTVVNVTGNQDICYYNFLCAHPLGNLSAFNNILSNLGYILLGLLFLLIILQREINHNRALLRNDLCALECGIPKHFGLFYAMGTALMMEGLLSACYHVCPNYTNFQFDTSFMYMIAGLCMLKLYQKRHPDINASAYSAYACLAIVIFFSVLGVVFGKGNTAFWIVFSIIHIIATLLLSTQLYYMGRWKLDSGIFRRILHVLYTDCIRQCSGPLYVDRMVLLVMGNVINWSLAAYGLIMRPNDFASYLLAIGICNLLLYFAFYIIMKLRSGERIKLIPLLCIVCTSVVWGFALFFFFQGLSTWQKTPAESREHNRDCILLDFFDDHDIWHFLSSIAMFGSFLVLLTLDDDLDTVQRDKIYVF
UniProt Q13435: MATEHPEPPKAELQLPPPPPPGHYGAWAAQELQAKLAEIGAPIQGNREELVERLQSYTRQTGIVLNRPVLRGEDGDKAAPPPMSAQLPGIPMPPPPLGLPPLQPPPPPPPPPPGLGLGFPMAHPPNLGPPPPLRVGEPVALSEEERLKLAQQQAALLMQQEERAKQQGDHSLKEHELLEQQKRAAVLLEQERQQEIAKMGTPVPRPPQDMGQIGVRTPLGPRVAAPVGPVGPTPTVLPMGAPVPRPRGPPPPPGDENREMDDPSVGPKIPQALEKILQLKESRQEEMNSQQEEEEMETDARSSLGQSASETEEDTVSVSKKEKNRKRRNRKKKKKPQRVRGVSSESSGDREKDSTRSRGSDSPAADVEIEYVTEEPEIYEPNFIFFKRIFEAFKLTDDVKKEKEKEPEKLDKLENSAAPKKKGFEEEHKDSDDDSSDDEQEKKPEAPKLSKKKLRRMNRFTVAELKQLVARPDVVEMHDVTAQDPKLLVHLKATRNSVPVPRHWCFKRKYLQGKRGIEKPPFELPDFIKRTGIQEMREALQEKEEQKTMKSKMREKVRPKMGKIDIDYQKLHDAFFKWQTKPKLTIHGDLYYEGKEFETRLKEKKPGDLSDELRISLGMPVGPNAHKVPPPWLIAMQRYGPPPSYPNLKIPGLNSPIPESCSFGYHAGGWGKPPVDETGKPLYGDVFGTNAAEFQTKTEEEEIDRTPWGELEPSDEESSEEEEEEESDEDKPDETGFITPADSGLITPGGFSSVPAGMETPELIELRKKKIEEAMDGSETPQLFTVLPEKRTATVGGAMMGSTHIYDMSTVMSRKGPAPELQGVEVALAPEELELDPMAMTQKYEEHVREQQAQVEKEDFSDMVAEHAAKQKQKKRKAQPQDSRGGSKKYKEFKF
UniProt Q96EQ0: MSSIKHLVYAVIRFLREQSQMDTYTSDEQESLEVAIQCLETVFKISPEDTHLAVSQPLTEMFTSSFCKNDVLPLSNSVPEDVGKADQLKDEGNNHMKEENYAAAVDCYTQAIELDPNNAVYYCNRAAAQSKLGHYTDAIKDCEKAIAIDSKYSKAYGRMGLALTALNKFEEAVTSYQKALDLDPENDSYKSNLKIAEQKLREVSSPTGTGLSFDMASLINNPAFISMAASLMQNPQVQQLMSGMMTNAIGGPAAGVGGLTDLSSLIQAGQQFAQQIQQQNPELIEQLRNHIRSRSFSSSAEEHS

Assays:
Assay in all cases: log2 fold change, soluble protein after heating vs DMSO (PISA); higher = thermal stabilisation; K562 cells, 10 uM, 30 min; active = over 0.2 and 3.5 SD of the protein, either way, in both replicates (recomputed)
erlotinib = compound: C#Cc1cccc(Nc2ncnc3cc(OCCOC)c(OCCOC)cc23)c1 [erlotinib]
Method in brief: (§1)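 K562 cells at 2×10^6 cells/mL were exposed to 10 μM compound for 30 min, then aliquots were heated for 3 min across 48°C-58°C, pooled, and extracted in PBS containing 0.5% NP-40 at 4°C. The supernatant after 21,000xg for 90 min was taken as soluble protein and measured by TMTpro 16plex LC-MS/MS with channel sums equalised. Thermal stability is reported relative to control samples, with values from duplicates. Fold changes are given on a log2 scale.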

[1] = compound: C/C(=N\NC(=O)C1=CC(=CC=C1)S(=O)(=O)N2CCOCC2)/C3=C(C=CC(=C3)Cl)O
Method in brief: as §1

[2] = compound: C1=CC(=C(C=C1Cl)C2=NC3=NC=CN=C3C(=N2)NC4=CC=NC=C4)F
Method in brief: as §1

[3] = compound: C1=CC(=CC=C1C2=NC3=C(N2)C=C(C=C3)C(=O)N)OC4=CC=C(C=C4)Cl
Method in brief: as §1

[4] = compound: C1=CC2=C(C=CC(=C2)/C=C\3/C(=O)NC(=NCC4=CC=CS4)S3)N=C1
Method in brief: as §1

[5] = compound: C1=CC2=NC=CN=C2C=C1/C=C/3\C(=O)NC(=O)S3
Method in brief: as §1

[6] = compound: C1=CC=C(C=C1)C2=NC(=C(N2)C3=CC=NC=C3)C4=CC(=C(C=C4)Cl)O
Method in brief: as §1

[7] = compound: C1=CC=C2C(=C1)C3=NNC4=CC=CC(=C43)C2=O
Method in brief: as §1

[8] = compound: C1CCN(C1)C(=O)NC2=CC=CC(=C2)NC3=NC=C(C(=N3)NCCC4=CN=CN4)Br
Method in brief: as §1

[9] = compound: C1CN(CCC1(CC2=CC=C(C=C2)Cl)N)C3=NC=NC4=C3C=CN4
Method in brief: as §1

Measured: log2 fold change

SERPINF2 (UniProt P08697)
inactive: erlotinib -0.303 | [1] -0.135 | [2] 0.109 | [3] 0.185 | [4] 0.17 | [5] -0.004 | [6] -0.205 | [7] -0.05 | [8] 0.153 | [9] 0.337

SFPQ (UniProt P23246)
inactive: erlotinib 0 | [1] 0 | [2] -0.227 | [3] 0.028 | [4] -0.037 | [5] 0.098 | [6] -0.079 | [7] -0.037 | [8] -0.055 | [9] -0.064

SET isoform 2 (UniProt Q01105)
inactive: erlotinib 0.039 | [1] -0.007 | [2] -0.047 | [3] 0.002 | [4] -0.002 | [5] -0.013 | [6] -0.045 | [7] 0.022 | [8] -0.014 | [9] 0.041

SEPTIN4 isoform 4 (UniProt O43236)
inactive: erlotinib 0.02 | [1] 0.168 | [2] 0.118 | [3] -0.028 | [4] -0.206 | [5] 0.091 | [6] 0.3 | [7] 0.126 | [8] -0.129 | [9] 0.125

SGF29 (UniProt Q96ES7)
inactive: erlotinib 0.021 | [1] 0.029 | [2] -0.018 | [3] 0.004 | [4] -0.007 | [5] -0.03 | [6] 0.016 | [7] 0.035 | [8] -0.028 | [9] 0.081

SHTN1 isoform 3 (UniProt A0MZ66)
inactive: erlotinib 0.01 | [1] 0.021 | [2] -0.041 | [3] -0.074 | [4] 0.033 | [5] 0.053 | [6] 0.011 | [7] 0.001 | [8] -0.036 | [9] -0.043

SIL1 (UniProt Q9H173)
inactive: erlotinib -0.053 | [1] -0.107 | [2] -0.059 | [3] 0.039 | [4] 0.026 | [5] -0.008 | [6] 0.044 | [7] -0.011 | [8] 0.027 | [9] -0.022

SF3A2 (UniProt Q15428)
inactive: erlotinib -0.014 | [1] 0.073 | [2] -0.055 | [3] -0.005 | [4] -0.022 | [5] 0.063 | [6] -0.016 | [7] -0.117 | [8] -0.062 | [9] -0.049

SIPA1 (UniProt Q96FS4)
inactive: erlotinib 0.053 | [1] -0.005 | [2] 0 | [3] -0.017 | [4] -0.052 | [5] -0.005 | [6] 0 | [7] 0.005 | [8] -0.101 | [9] -0.055

SIRT5 (UniProt Q9NXA8)
inactive: erlotinib -0.097 | [1] 0.042 | [2] 0.011 | [3] 0.054 | [4] -0.035 | [5] 0.083 | [6] -0.123 | [7] 0.036 | [8] -0.044 | [9] -0.022

SEPTIN6 (UniProt Q14141)
inactive: erlotinib -0.081 | [1] 0.026 | [2] 0.014 | [3] 0.03 | [4] 0.018 | [5] 0.013 | [6] -0.032 | [7] -0.014 | [8] 0.022 | [9] 0.073

Copied from the results shown (2 entries):
SIRT5 (UniProt Q9NXA8)
inactive: erlotinib -0.097 | [1] 0.042 | [2] 0.011 | [3] 0.054 | [4] -0.035 | [5] 0.083 | [6] -0.123 | [7] 0.036 | [8] -0.044 | [9] -0.022

SEPTIN6 (UniProt Q14141)
inactive: erlotinib -0.081 | [1] 0.026 | [2] 0.014 | [3] 0.03 | [4] 0.018 | [5] 0.013 | [6] -0.032 | [7] -0.014 | [8] 0.022 | [9] 0.073

(further entries)

SHCBP1 (UniProt Q8NEM2)
inactive: erlotinib -0.013 | [1] -0.029 | [2] -0.027 | [3] 0.018 | [4] 0.137 | [5] 0.028 | [6] -0.104 | [7] 0.054 | [8] 0.127 | [9] -0.128

SF3B3 (UniProt Q15393)
inactive: erlotinib -0.039 | [1] 0.026 | [2] 0.009 | [3] -0.005 | [4] 0.004 | [5] 0.003 | [6] -0.009 | [7] 0.054 | [8] -0.023 | [9] 0.003

SELENOH (UniProt Q8IZQ5)
inactive: erlotinib 0.032 | [1] 0.013 | [2] -0.013 | [3] -0.003 | [5] -0.002 | [6] 0.034 | [7] 0.003 | [8] -0.052 | [9] 0.032
active: [4] -0.297

SF3B6 (UniProt Q9Y3B4)
inactive: erlotinib 0.038 | [1] 0.026 | [2] -0.256 | [3] 0.052 | [4] 0.13 | [5] 0.023 | [6] 0.005 | [7] -0.063 | [8] 0.029 | [9] -0.094

SETD3 (UniProt Q86TU7)
inactive: erlotinib 0.01 | [1] -0.007 | [2] 0.04 | [3] 0.009 | [4] 0.06 | [5] 0.002 | [6] 0.031 | [7] 0.004 | [8] -0.015 | [9] 0.044

SELENOS (UniProt Q9BQE4)
inactive: erlotinib 0.011 | [1] 0.011 | [2] 0.033 | [3] 0.014 | [4] -0.029 | [5] 0.023 | [6] -0.043 | [7] -0.077 | [8] -0.057 | [9] 0.018

SF3B4 (UniProt Q15427)
inactive: erlotinib -0.103 | [1] -0.04 | [2] 0.02 | [3] 0.038 | [4] 0.098 | [5] 0.079 | [6] 0.027 | [7] -0.007 | [8] -0.015 | [9] -0.058

SELENOT (UniProt P62341)
inactive: erlotinib 0.007 | [1] 0.095 | [2] 0.045 | [3] 0.038 | [4] -0.034 | [5] 0.03 | [6] -0.038 | [7] -0.162 | [8] 0.023 | [9] 0.101

SEMA4C (UniProt Q9C0C4)
inactive: erlotinib 0.017 | [1] 0.014 | [2] 0.014 | [3] 0.018 | [4] -0.026 | [5] 0.061 | [6] -0.107 | [7] -0.089 | [8] -0.056 | [9] 0.024

SHMT2 (UniProt P34897)
inactive: erlotinib -0.002 | [1] 0.001 | [2] 0 | [3] -0.005 | [4] 0.016 | [5] 0.009 | [6] -0.038 | [7] -0.013 | [8] 0.02 | [9] 0.034

SHKBP1 (UniProt Q8TBC3)
inactive: erlotinib 0.002 | [1] 0.044 | [2] 0.009 | [3] 0.027 | [4] 0.046 | [5] -0.022 | [6] 0.01 | [7] -0.035 | [8] 0.023 | [9] 0.018

SIDT2 isoform 2 (UniProt Q8NBJ9)
inactive: erlotinib 0.007 | [1] 0.026 | [2] -0.027 | [3] 0.004 | [4] 0.042 | [5] 0.087 | [6] -0.053 | [7] 0.038 | [8] 0.002 | [9] 0.053

SERPINH1 (UniProt P50454)
inactive: erlotinib -0.027 | [1] 0.013 | [2] 0.008 | [3] -0.03 | [4] -0.033 | [5] 0 | [6] 0.016 | [7] 0.009 | [8] -0.004 | [9] 0.008

SEC61A1 (UniProt P61619)
inactive: erlotinib -0.043 | [1] -0.014 | [2] -0.049 | [3] -0.006 | [4] 0.037 | [5] 0.023 | [6] 0.033 | [7] -0.033 | [8] 0.024 | [9] 0.069

SEPTIN11 isoform 2 (UniProt Q9NVA2)
inactive: erlotinib 0.036 | [1] -0.028 | [2] 0.017 | [3] 0.008 | [4] -0.02 | [5] -0.001 | [6] -0.035 | [7] 0.011 | [8] -0.018 | [9] 0.038

SF3B2 (UniProt Q13435)
inactive: erlotinib 0.081 | [1] -0.015 | [2] -0.155 | [3] -0.024 | [4] -0.041 | [5] 0.035 | [6] -0.05 | [7] -0.002 | [8] -0.002 | [9] -0.097

SEPHS2 (UniProt Q99611)
inactive: erlotinib 0.011 | [1] 0.024 | [2] 0.07 | [3] -0.009 | [4] -0.031 | [5] 0.025 | [6] 0.144 | [7] 0.056 | [8] -0.003 | [9] 0.029

SGTB (UniProt Q96EQ0)
inactive: erlotinib -0.001 | [1] 0.049 | [2] 0.027 | [3] 0.01 | [4] 0.04 | [5] 0.092 | [6] -0.015 | [7] -0.017 | [8] -0.014 | [9] -0.02

SEL1L (UniProt Q9UBV2)
inactive: erlotinib -0.021 | [1] 0.027 | [2] -0.044 | [3] 0.024 | [4] 0.041 | [5] 0.096 | [6] 0.028 | [7] -0.03 | [8] 0.019 | [9] 0.025
